Some of the results follow.
Assays:
Assay in all cases: log2 fold change, soluble protein after heating vs DMSO (PISA); higher = thermal stabilisation; K562 cells, 10 uM, 30 min; active = over 0.2 and 3.5 SD of the protein, either way, in both replicates (recomputed)
[1] = compound: CC[C@@H]1C(=O)N(C)c2cnc(Nc3ccc(C(=O)NC4CCN(C)CC4)cc3OC)nc2N1C1CCCC1
Procedure, shortened: (§1)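 Quantification of soluble protein used TMTpro 16plex LC-MS/MS, with channel sums equalised. Samples were the supernatant after 21,000xg for 90 min of pooled aliquots from K562 cells (2×10^6 cells/mL) treated with 10 μM compound for 30 min, heated for 3 min over 48°C-58°C, and extracted in PBS with 0.5% NP-40 at 4°C. Values, from duplicates, describe thermal stability against control samples on a log2 fold-change scale.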

Sequences of proteins named here, by UniProt entry; tags and fusion partners are left off. A change or cut given only in a name is not applied to a line headed by its entry.
UniProt O95297: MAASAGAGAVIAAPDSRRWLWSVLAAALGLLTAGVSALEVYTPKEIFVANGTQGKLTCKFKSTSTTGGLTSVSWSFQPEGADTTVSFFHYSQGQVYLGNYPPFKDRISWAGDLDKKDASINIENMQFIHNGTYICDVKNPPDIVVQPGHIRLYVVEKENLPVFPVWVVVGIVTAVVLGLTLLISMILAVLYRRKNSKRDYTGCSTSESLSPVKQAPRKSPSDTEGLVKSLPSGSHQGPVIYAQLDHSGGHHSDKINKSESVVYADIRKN
UniProt O95822: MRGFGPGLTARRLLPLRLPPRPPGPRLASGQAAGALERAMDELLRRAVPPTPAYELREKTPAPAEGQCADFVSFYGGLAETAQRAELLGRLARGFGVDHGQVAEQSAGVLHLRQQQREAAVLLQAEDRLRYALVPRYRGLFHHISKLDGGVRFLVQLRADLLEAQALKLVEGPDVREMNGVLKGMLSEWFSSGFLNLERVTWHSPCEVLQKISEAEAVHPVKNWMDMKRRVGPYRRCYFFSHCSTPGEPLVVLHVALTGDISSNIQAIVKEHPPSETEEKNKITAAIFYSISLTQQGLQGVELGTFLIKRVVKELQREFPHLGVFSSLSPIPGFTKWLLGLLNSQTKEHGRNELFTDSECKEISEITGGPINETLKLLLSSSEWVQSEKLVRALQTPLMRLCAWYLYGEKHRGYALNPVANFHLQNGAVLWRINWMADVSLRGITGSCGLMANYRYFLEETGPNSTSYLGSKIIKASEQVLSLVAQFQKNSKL
UniProt Q9Y3A3: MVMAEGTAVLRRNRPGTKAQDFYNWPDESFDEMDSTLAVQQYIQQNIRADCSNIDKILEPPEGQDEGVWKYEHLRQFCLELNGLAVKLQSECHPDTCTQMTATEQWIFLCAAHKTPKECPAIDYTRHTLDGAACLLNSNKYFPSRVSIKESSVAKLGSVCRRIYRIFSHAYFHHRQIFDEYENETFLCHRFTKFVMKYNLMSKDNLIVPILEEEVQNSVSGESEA
UniProt Q13724: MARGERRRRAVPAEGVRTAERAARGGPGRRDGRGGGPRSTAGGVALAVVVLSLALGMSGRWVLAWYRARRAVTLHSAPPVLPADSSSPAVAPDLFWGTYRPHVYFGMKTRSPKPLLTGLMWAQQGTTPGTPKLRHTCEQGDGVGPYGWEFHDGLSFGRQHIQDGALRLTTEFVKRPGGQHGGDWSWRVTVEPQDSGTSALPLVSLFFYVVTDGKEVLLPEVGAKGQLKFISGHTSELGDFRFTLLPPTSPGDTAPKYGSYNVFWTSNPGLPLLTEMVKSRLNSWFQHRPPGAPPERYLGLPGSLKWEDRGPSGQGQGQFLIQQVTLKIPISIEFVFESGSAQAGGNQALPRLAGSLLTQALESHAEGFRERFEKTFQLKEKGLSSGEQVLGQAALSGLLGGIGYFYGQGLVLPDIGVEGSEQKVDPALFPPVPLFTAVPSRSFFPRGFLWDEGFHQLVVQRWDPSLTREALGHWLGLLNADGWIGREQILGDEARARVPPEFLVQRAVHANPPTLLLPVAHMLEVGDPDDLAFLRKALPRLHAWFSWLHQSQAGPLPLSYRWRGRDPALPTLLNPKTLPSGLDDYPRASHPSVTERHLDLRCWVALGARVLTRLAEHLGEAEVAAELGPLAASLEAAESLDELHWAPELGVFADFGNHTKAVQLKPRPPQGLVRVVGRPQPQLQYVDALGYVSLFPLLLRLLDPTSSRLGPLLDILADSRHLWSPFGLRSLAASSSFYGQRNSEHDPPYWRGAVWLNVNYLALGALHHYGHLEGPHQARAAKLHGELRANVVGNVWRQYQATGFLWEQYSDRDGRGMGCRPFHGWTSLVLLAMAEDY
UniProt P49959: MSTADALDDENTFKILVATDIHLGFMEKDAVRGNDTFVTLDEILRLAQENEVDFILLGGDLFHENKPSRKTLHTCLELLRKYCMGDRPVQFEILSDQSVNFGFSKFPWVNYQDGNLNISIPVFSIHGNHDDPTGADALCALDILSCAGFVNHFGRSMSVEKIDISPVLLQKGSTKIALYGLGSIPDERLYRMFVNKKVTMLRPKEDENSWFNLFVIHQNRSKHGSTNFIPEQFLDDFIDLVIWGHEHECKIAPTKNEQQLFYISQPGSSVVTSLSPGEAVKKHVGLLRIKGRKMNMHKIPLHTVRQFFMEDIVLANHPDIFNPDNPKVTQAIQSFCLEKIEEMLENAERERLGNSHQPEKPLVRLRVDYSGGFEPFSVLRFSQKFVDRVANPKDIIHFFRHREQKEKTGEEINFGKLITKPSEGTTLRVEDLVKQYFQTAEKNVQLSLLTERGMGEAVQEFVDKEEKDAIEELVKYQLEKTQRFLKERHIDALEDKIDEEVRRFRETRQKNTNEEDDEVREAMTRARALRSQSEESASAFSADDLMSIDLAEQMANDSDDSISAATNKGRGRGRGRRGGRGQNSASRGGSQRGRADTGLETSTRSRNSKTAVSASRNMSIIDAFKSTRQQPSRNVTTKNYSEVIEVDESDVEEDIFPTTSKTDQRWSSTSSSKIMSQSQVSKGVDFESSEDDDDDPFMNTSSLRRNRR
UniProt Q9UL63, whole entry, looked up: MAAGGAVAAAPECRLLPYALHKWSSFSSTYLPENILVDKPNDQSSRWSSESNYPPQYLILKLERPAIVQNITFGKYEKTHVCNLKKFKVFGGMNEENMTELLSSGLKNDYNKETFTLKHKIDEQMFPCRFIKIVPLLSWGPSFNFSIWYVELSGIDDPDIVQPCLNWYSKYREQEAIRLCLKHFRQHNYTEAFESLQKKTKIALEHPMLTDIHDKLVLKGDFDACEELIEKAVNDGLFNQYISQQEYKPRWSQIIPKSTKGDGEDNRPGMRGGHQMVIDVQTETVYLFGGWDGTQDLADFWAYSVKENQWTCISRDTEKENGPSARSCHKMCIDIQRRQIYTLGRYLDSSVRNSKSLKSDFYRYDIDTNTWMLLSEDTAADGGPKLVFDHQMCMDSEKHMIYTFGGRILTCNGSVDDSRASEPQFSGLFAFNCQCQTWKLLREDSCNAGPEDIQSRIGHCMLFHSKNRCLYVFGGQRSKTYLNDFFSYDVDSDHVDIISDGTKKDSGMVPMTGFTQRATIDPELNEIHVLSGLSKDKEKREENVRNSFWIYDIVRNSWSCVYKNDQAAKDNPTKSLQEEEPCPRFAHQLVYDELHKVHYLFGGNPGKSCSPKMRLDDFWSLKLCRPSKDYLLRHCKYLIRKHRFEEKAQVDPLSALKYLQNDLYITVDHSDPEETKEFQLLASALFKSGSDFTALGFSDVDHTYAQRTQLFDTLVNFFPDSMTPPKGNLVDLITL
UniProt O75352: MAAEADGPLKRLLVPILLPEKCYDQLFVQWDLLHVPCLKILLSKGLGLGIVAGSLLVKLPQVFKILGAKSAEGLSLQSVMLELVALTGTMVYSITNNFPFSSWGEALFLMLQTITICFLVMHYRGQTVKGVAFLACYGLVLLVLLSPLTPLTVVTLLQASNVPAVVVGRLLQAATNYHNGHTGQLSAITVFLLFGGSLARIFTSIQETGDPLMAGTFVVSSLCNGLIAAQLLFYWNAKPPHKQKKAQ
UniProt P22033: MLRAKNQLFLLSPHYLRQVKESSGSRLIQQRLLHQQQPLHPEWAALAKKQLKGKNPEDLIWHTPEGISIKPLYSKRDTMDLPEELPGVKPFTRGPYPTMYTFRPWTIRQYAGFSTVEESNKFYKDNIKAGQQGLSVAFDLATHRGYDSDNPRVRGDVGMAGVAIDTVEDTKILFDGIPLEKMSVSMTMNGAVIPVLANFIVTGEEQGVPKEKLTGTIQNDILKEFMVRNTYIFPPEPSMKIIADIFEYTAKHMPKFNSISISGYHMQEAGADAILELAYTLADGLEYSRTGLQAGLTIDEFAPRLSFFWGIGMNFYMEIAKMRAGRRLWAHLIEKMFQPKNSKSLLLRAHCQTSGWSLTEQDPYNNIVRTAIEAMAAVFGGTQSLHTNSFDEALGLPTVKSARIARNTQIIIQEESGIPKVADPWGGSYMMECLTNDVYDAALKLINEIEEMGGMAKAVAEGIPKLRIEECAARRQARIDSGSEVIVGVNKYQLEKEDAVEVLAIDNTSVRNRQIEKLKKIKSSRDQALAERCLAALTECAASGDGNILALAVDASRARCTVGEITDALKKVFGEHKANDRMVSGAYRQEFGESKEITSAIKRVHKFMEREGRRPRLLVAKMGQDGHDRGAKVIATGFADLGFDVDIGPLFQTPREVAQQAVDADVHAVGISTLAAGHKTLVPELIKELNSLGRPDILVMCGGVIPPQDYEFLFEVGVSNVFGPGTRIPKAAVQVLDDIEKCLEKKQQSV
UniProt Q9BV20: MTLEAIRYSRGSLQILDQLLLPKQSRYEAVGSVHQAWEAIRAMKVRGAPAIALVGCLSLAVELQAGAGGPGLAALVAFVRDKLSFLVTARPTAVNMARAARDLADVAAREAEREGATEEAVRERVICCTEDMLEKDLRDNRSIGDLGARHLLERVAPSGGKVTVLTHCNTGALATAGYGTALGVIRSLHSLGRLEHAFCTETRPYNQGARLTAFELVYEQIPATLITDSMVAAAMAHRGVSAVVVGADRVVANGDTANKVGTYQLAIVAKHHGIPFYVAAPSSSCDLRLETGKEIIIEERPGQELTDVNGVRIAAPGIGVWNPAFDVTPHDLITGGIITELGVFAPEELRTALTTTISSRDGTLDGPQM
UniProt Q14165: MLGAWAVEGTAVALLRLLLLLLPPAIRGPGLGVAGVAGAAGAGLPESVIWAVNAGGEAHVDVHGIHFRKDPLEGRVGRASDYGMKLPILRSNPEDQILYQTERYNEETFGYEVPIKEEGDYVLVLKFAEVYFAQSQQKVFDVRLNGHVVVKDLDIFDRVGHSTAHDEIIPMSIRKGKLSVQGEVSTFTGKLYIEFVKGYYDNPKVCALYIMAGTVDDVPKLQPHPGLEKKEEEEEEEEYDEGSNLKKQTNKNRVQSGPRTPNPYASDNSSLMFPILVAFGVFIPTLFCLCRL
UniProt Q9HC36: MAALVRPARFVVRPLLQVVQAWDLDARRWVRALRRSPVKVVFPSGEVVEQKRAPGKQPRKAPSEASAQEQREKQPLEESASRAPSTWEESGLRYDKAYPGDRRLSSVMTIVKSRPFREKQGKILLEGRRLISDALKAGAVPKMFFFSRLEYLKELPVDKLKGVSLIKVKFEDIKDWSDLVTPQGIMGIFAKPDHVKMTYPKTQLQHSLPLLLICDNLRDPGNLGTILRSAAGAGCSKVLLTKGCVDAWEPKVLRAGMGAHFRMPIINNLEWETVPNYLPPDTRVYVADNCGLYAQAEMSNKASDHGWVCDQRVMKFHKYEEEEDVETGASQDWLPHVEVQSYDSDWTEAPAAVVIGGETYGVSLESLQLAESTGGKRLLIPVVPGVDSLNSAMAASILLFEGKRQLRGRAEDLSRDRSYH

volasertib = compound: CC[C@@H]1C(=O)N(C)c2cnc(Nc3ccc(C(=O)N[C@H]4CC[C@H](N5CCN(CC6CC6)CC5)CC4)cc3OC)nc2N1C(C)C [volasertib]
Procedure, shortened: as §1

[2] = compound: CC[C@H](C)N1C=C(C2=C(C=C(C=C21)C3=CN=C(C=C3)N4CCNCC4)C(=O)NCC5=C(C=C(NC5=O)C)C)C
Procedure, shortened: as §1

epoxomicin = compound: CC[C@H](C)[C@@H](C(=O)N[C@@H]([C@@H](C)O)C(=O)N[C@@H](CC(C)C)C(=O)[C@]1(CO1)C)NC(=O)[C@H]([C@@H](C)CC)N(C)C(=O)C [epoxomicin]
Procedure, shortened: as §1

[3] = compound: CCn1c(C(=O)N(C2CC2)C2CC2)cc2c3c(ncn3C)c(Nc3cc(C)n(C)n3)nc21
Procedure, shortened: as §1

[4] = compound: CCn1cc(-c2ccnc3[nH]c(-c4cccc(CN(C)C)c4)cc23)c(-c2ccc(NC(=O)N(C)C)cc2)n1
Procedure, shortened: as §1

[5] = compound: CN(C)CC(=O)Nc1ccc2[nH]c(=O)c3ccccc3c2c1
Procedure, shortened: as §1

rosiglitazone = compound: CN(CCOC1=CC=C(C=C1)C[C@H]2C(=O)NC(=O)S2)C3=CC=CC=N3 (racemic) [rosiglitazone]
Procedure, shortened: as §1

[6] = compound: CN1C2=C(C3=C1C(=O)N(N=C3)CC4=CC(=CC=C4)N)SC(=C2)S(=O)C
Procedure, shortened: as §1

[7] = compound: CN1CCC(CNc2ccc3ncc(-c4cccc(OC(F)(F)F)c4)n3n2)CC1
Procedure, shortened: as §1

Measured: log2 fold change

MPZL1 (UniProt O95297)
inactive: [1] 0.123 | volasertib 0.13 | [2] -0.025 | epoxomicin -0.019 | [3] 0.02 | [4] -0.027 | [5] -0.049 | rosiglitazone -0.025 | [6] -0.051 | [7] 0.004

MRPL45 (UniProt Q9BRJ2)
inactive: [1] 0.029 | volasertib 0.126 | [2] 0.098 | epoxomicin -0.062 | [3] -0.061 | [4] -0.069 | [5] 0.03 | rosiglitazone 0.023 | [6] 0.087 | [7] 0.101

MLYCD (UniProt O95822)
inactive: [1] 0.051 | volasertib 0.037 | [2] 0.05 | epoxomicin -0.031 | [3] 0.022 | [4] 0.025 | [5] -0.055 | rosiglitazone -0.023 | [6] 0.04 | [7] -0.067

MOB4 (UniProt Q9Y3A3)
inactive: [1] 0.091 | volasertib -0.032 | [2] 0.008 | epoxomicin 0.002 | [3] -0.035 | [4] -0.005 | [5] 0.019 | rosiglitazone 0.018 | [6] -0.035 | [7] 0.03

MRPL30 isoform 2 (UniProt Q8TCC3)
inactive: [1] 0.054 | volasertib 0.193 | [2] 0.026 | epoxomicin -0.059 | [3] -0.118 | [4] -0.005 | [5] -0.027 | rosiglitazone -0.048 | [6] 0.102 | [7] 0.145

Quoted at random: two records from the list
MRPL30 isoform 2 (UniProt Q8TCC3)
inactive: [1] 0.054 | volasertib 0.193 | [2] 0.026 | epoxomicin -0.059 | [3] -0.118 | [4] -0.005 | [5] -0.027 | rosiglitazone -0.048 | [6] 0.102 | [7] 0.145

MRPL45 (UniProt Q9BRJ2)
inactive: [1] 0.029 | volasertib 0.126 | [2] 0.098 | epoxomicin -0.062 | [3] -0.061 | [4] -0.069 | [5] 0.03 | rosiglitazone 0.023 | [6] 0.087 | [7] 0.101

Additional records follow.

MOGS (UniProt Q13724)
inactive: [1] -0.036 | volasertib -0.033 | [2] 0.102 | epoxomicin 0.002 | [3] 0.015 | [4] 0.073 | [5] -0.04 | rosiglitazone 0.016 | [6] 0 | [7] 0.005

MRPL57 (UniProt Q9BQC6)
inactive: [1] 0.112 | volasertib 0.183 | [2] 0.061 | epoxomicin -0.075 | [3] -0.033 | [4] 0.007 | [5] -0.048 | rosiglitazone -0.074 | [6] 0.064 | [7] 0.006

MRPL24 (UniProt Q96A35)
inactive: [1] 0.02 | volasertib 0.24 | [2] 0.136 | epoxomicin -0.027 | [3] -0.039 | [4] -0.186 | [5] -0.012 | rosiglitazone -0.006 | [6] 0.067 | [7] 0.04

MRPL40 (UniProt Q9NQ50)
inactive: [1] 0.125 | volasertib 0.282 | [2] 0.009 | epoxomicin 0.002 | [3] 0.023 | [4] -0.035 | [5] -0.114 | rosiglitazone -0.07 | [6] 0.051 | [7] 0.076

MRE11 isoform 3 (UniProt P49959)
inactive: [1] -0.001 | volasertib -0.066 | [2] -0.005 | epoxomicin -0.001 | [3] 0.009 | [4] -0.01 | [5] -0.017 | rosiglitazone -0.035 | [6] -0.028 | [7] 0.04

MKLN1 (UniProt Q9UL63)
inactive: [1] 0.009 | volasertib -0.089 | [2] 0.024 | epoxomicin 0.021 | [3] -0.003 | [4] 0.005 | [5] -0.025 | rosiglitazone 0.001 | [6] 0 | [7] 0.007

MPDU1 (UniProt O75352)
inactive: [1] 0.055 | volasertib -0.037 | [2] 0.023 | epoxomicin -0.05 | [3] -0.042 | [4] -0.042 | [5] 0.134 | rosiglitazone 0.021 | [6] -0.112 | [7] 0.088

MMUT (UniProt P22033)
inactive: [1] -0.021 | volasertib -0.069 | [2] 0.013 | epoxomicin 0.021 | [3] 0 | [4] -0.042 | [5] 0.013 | rosiglitazone 0.031 | [6] -0.045 | [7] -0.067

MRPL10 isoform 2 (UniProt Q7Z7H8)
inactive: [1] -0.111 | volasertib 0.04 | [2] 0.089 | epoxomicin -0.041 | [3] -0.081 | [4] -0.152 | [5] -0.041 | rosiglitazone -0.029 | [6] 0.076 | [7] 0.066

MRPL22 (UniProt Q9NWU5)
inactive: [1] 0.05 | volasertib 0.176 | [2] -0.103 | epoxomicin -0.062 | [3] 0.026 | [4] 0.077 | [5] -0.052 | rosiglitazone 0.004 | [6] 0.11 | [7] 0.048

MRPL14 (UniProt Q6P1L8)
inactive: [1] 0.157 | volasertib -0.026 | [2] 0.024 | epoxomicin -0.054 | [3] 0.079 | [4] -0.089 | [5] 0.077 | rosiglitazone -0.011 | [6] -0.043 | [7] 0.083

MRPL35 (UniProt Q9NZE8)
inactive: [1] 0.06 | volasertib 0.143 | [2] -0.031 | epoxomicin -0.109 | [3] -0.039 | [4] 0.123 | [5] -0.044 | rosiglitazone -0.1 | [6] 0.113 | [7] 0.111

MKI67 (UniProt P46013)
inactive: [1] -0.053 | volasertib -0.283 | [2] -0.032 | epoxomicin -0.097 | [3] 0.029 | [4] 0.092 | [5] 0.026 | rosiglitazone -0.086 | [6] 0.094 | [7] -0.087

MRPL28 (UniProt Q13084)
inactive: [1] 0.005 | volasertib 0.226 | [2] 0.032 | epoxomicin -0.081 | [3] 0.165 | [4] -0.108 | [5] 0.035 | rosiglitazone -0.057 | [6] -0.012 | [7] 0.096

MRPL23 (UniProt Q16540)
inactive: [1] -0.011 | volasertib 0.268 | [2] 0.052 | epoxomicin 0.025 | [3] -0.037 | [4] 0.019 | [5] -0.041 | rosiglitazone -0.158 | [6] 0.082 | [7] -0.021

MRPL54 (UniProt Q6P161)
inactive: [1] 0.044 | volasertib 0.101 | [2] -0.036 | epoxomicin -0.03 | [3] 0.025 | [4] 0.155 | [5] -0.146 | rosiglitazone -0.075 | [6] 0.139 | [7] -0.043

MRPL1 (UniProt Q9BYD6)
inactive: [1] 0.03 | volasertib 0.194 | [2] 0.078 | epoxomicin 0.044 | [3] -0.022 | [4] -0.021 | [5] 0.018 | rosiglitazone 0.048 | [6] 0.177 | [7] -0.056

MRPL55 isoform 2 (UniProt Q7Z7F7)
inactive: [1] 0.004 | volasertib 0.252 | [2] 0.103 | epoxomicin 0.074 | [3] -0.029 | [4] 0.052 | [5] -0.013 | rosiglitazone 0.056 | [6] 0.009 | [7] 0.074

MRI1 (UniProt Q9BV20)
inactive: [1] 0.018 | volasertib -0.029 | [2] -0.028 | epoxomicin 0.044 | [3] -0.027 | [4] -0.021 | [5] -0.004 | rosiglitazone 0.014 | [6] -0.014 | [7] 0

MLEC (UniProt Q14165)
inactive: [1] -0.011 | volasertib -0.065 | [2] 0.024 | epoxomicin -0.014 | [3] 0.051 | [4] 0.003 | [5] -0.015 | rosiglitazone 0.005 | [6] -0.014 | [7] 0.05

MRPL27 (UniProt Q9P0M9)
inactive: [1] 0.059 | volasertib 0.28 | [2] 0.206 | epoxomicin 0.103 | [3] -0.072 | [4] 0.023 | [5] -0.118 | rosiglitazone -0.033 | [6] 0.103 | [7] 0.13

MRPL51 (UniProt Q4U2R6)
inactive: [1] 0.102 | volasertib 0.217 | [2] -0.059 | epoxomicin -0.044 | [3] -0.078 | [4] 0.04 | [5] -0.017 | rosiglitazone -0.046 | [6] 0.13 | [7] -0.024

MRPL12 (UniProt P52815)
inactive: [1] 0.021 | volasertib 0.056 | [2] -0.062 | epoxomicin 0.231 | [3] 0.033 | [4] 0.134 | [5] -0.042 | rosiglitazone -0.001 | [6] -0.014 | [7] 0.183

MRPL11 (UniProt Q9Y3B7)
inactive: [1] 0.092 | volasertib 0.153 | [2] 0.098 | epoxomicin -0.027 | [3] -0.041 | [4] -0.054 | [5] 0.038 | rosiglitazone -0.052 | [6] 0.06 | [7] 0.075

MRM3 (UniProt Q9HC36)
inactive: [1] 0.122 | volasertib 0.3 | [2] 0.012 | epoxomicin -0.287 | [3] 0.087 | [4] 0.165 | [5] -0.08 | rosiglitazone -0.258 | [6] 0.383 | [7] 0.198

Reference: the supplement of paper PMC10849652
